For 1 substance, binding results are on record in PMC5472792, “Bub1 positions Mad1 close to KNL1 MELT repeats to promote checkpoint signalling” (Nature Communications, 2017).

The chains behind the UniProt entries cited, without tags or fusion partners.
UniProt Q8NG31: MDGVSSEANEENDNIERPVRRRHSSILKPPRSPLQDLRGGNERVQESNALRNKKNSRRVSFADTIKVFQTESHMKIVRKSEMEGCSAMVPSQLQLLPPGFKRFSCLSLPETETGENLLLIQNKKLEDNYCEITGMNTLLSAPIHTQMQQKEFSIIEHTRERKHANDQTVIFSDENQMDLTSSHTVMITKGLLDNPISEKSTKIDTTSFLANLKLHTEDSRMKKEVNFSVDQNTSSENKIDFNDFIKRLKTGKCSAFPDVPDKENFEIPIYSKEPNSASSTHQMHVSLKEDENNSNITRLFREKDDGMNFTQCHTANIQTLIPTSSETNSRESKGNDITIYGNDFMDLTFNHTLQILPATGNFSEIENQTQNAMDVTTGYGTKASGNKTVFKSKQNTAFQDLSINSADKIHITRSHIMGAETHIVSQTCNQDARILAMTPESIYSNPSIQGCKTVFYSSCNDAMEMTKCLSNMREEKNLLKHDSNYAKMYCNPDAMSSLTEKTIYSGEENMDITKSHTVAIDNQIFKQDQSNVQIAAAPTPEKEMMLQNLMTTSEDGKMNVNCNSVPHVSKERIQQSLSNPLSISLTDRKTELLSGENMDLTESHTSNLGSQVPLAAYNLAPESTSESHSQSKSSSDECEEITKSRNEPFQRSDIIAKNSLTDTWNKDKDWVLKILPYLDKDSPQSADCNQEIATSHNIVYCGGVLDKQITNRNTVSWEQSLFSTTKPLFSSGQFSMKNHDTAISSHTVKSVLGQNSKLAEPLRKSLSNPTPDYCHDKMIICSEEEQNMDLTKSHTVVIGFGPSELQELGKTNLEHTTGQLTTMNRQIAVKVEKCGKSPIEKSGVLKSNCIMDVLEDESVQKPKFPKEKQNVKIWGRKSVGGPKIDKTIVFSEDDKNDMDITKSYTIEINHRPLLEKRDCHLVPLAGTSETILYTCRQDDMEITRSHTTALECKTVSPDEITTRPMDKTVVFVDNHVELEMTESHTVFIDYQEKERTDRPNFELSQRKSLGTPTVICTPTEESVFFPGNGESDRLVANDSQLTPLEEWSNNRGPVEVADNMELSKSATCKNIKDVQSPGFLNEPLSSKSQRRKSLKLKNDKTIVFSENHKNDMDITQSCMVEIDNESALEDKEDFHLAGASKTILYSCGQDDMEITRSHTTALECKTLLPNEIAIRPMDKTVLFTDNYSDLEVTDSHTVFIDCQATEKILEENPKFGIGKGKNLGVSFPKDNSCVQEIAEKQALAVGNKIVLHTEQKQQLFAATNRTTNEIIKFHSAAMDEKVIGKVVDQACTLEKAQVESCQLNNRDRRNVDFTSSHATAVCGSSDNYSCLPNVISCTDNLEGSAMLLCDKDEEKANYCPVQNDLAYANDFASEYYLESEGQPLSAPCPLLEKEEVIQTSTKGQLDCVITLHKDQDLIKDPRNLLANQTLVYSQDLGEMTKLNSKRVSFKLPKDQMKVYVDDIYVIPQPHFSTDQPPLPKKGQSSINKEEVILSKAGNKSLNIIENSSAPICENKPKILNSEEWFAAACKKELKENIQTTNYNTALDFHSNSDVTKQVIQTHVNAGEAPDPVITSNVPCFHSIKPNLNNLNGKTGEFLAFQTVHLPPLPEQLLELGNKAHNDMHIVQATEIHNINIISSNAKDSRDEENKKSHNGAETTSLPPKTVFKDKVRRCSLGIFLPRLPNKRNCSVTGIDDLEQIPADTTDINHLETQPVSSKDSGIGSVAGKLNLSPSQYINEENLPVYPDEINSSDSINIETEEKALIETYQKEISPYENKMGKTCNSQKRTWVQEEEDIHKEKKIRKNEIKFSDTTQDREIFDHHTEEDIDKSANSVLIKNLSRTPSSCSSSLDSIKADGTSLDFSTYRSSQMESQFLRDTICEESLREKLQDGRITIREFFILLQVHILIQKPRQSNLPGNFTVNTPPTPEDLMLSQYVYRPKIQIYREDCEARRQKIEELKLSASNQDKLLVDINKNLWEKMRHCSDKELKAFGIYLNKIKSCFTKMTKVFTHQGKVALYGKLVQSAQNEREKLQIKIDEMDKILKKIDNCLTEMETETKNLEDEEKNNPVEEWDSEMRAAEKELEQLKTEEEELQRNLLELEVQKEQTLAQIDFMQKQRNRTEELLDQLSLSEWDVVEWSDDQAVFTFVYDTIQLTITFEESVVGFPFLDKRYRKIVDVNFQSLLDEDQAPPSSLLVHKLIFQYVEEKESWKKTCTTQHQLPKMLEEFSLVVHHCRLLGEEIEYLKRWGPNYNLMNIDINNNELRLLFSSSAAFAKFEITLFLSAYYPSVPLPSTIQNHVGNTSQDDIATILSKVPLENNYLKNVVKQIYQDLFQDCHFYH

Residue numbers refer to the chain shown, from its start. These are yes or no findings as the source states them, for the method shown. In cells and extracts the contact can be indirect. These calls come from enrichment with a bait or labelling near it, and not all partners need be listed.

Experiment [1] has as its target T1, Mad1(EFR/AAA)-BirA (human) (UniProt Q9Y6D9).
T1 sequence: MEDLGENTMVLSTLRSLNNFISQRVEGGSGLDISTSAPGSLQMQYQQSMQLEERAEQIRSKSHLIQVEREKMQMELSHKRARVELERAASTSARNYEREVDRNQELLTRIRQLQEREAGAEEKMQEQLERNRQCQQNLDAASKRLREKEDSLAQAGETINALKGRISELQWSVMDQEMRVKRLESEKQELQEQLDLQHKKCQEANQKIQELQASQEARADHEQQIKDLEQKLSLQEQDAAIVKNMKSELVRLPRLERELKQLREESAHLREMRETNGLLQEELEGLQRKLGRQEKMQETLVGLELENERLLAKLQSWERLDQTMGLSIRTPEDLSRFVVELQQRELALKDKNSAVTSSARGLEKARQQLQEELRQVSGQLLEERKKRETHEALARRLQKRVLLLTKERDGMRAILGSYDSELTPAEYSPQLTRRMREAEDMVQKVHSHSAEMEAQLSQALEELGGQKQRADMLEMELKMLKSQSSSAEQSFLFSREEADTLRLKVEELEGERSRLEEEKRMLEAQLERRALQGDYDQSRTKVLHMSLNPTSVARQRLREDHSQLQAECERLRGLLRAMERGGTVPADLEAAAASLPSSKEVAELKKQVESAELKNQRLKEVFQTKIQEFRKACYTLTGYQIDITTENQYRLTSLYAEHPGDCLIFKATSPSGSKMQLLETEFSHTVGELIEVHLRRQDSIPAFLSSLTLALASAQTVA
As to the kind of experiment: proximity labelling; BioID: Mad1 fused to BirA in stable HeLa lines, nocodazole arrest, 25 μM biotin; RIPA lysis, streptavidin resin, stringent washes (2% SDS); read by SILAC mass spectrometry and western blot.

Another experiment concerns the target T2, Mad1-BirA (human) (UniProt Q9Y6D9).
T2 sequence: T1 sequence with A710E, A712F, A714R
The experiment is described as above.

Take KNL1 (from UniProt Q8NG31 1-2342): the binding result (in experiment [1]; with Mad1-BirA (human)) was “binds” each time.
